The amount applied is not stated for every result.
Assay: Dissociation index (side-effect endpoint / anti-inflammatory endpoint)
Format: in vivo, mouse
Details: for Corrected dissociation index OC/TNFα (ED50) / Corrected dissociation index OC/TNFα (ED80): based on prednisolone; for Dissociation index OC/TNFα (ED50): osteocalcin ED50 / TNFα ED50; for Dissociation index OC/TNFα (ED80): osteocalcin ED80 / TNFα ED80

Structure (SMILES) | Corrected dissociation index OC/TNFα (ED50) | Dissociation index OC/TNFα (ED50) | Corrected dissociation index OC/TNFα (ED80) | Dissociation index OC/TNFα (ED80) | further results
Cc1ncccc1CNC(=O)c1ccc2c(c1)CC[C@@H]1C[C@@](O)(CCC(F)(F)F)CC[C@@]21Cc1ccccc1 [Comparator A, (4βS,7S,8αR)-4β-benzyl-7-hydroxy-N-((2-methylpyridin-3-yl)methyl)-7-(3,3,3-trifluoropropyl)-4β,5,6,7,8,8α,9,10-octahydrophenanthrene-2-carboxamide] | 0.56 | 0.62 | – | – | –
Cc1cnc(NC(=O)c2ccc3c(c2)CC[C@@H]2C[C@@](O)(C(F)(F)F)CC[C@@]32Cc2ccccc2)c(C)n1 [Comparator B, (4βS,7R,8αR)-4β-benzyl-N-(3,5-dimethylpyrazin-2-yl)-7-hydroxy-7-(trifluoromethyl)-4β,5,6,7,8,8α,9,10-octahydrophenanthrene-2-carboxamide] | 1.32 | 1.46 | >1.06 | >3.44 | –
Cc1ncccc1NC(=O)c1ccc2c(c1)CC[C@@H]1C[C@@](O)(CCC(F)(F)F)CC[C@@]21Cc1ccccc1 [Comparator C, (4βS,7S,8αR)-4β-benzyl-7-hydroxy-N-(2-methylpyridin-3-yl)-7-(3,3,3-trifluoropropyl)-4β,5,6,7,8,8α,9,10-octahydrophenanthrene-2-carboxamide] | 3.37 | 3.74 | 0.66 | 2.14 | –
Cc1ccncc1NC(=O)c1ccc2c(c1)CC[C@@H]1C[C@@](O)(C(F)(F)F)CC[C@@]21Cc1ccccc1 [Comparator D, (4βS,7R,8αR)-4β-benzyl-7-hydroxy-N-(4-methylpyridin-3-yl)-7-(trifluoromethyl)-4β,5,6,7,8,8α,9,10-octahydrophenanthrene-2-carboxamide] | 0.73 | 0.80 | <0.05 | <0.15 | –
Cc1ncccc1NC(=O)c1ccc2c(c1)C(=O)C[C@@H]1C[C@@](O)(C(F)(F)F)CC[C@@]21Cc1ccccc1 [Comparator E, (4βS,7R,8αS)-4β-benzyl-7-hydroxy-N-(2-methylpyridin-3-yl)-10-oxo-7-(trifluoromethyl)-4β,5,6,7,8,8α,9,10-octahydrophenanthrene-2-carboxamide] | 1.09 | 1.21 | 0.45 | 1.45 | –
Cc1ncccc1NC(=O)c1ccc2c(c1)[C@H](O)C[C@@H]1C[C@@](O)(C(F)(F)F)CC[C@@]21Cc1ccccc1 [Comparator F, (4βS,7R,8αR,10R)-4β-benzyl-7,10-dihydroxy-N-(2-methylpyridin-3-yl)-7-(trifluoromethyl)-4β,5,6,7,8,8α,9,10-octahydrophenanthrene-2-carboxamide] | 0.50 | 0.56 | >0.54 | >1.76 | –
Cc1ncccc1NC(=O)c1ccc2c(c1)CC[C@@H]1C[C@@](O)(C(F)F)CC[C@@]21Cc1ccccc1 [Comparator H, (4βS,7R,8αR)-4β-benzyl-7-(difluoromethyl)-7-hydroxy-N-(2-methylpyridin-3-yl)-4β,5,6,7,8,8α,9,10-octahydrophenanthrene-2-carboxamide] | 2.00 | 2.22 | 0.63 | 2.03 | –
Cc1ncccc1NC(=O)c1ccc2c(c1)C=C[C@@H]1C[C@@](O)(C(F)(F)F)CC[C@@]21Cc1ccccc1 [Comparator I, (4βS,7R,8αS)-4β-benzyl-7-hydroxy-N-(2-methylpyridin-3-yl)-7-(trifluoromethyl)-4β,5,6,7,8,8α-hexahydrophenanthrene-2-carboxamide] | – | – | >1.13 | – | –
Cc1ncc(NC(=O)c2ccc3c(c2)CC[C@@H]2C[C@@](O)(CCC(F)(F)F)CC[C@@]32Cc2ccccc2)c(C)n1 [Comparator J, (4βS,7S,8αR)-4β-benzyl-N-(2,4-dimethylpyrimidin-5-yl)-7-hydroxy-7-(3,3,3-trifluoropropyl)-4β,5,6,7,8,8α,9,10-octahydrophenanthrene-2-carboxamide] | – | – | 1.40 | – | –
Cc1ncccc1NC(=O)c1ccc2c(c1)CC[C@@H]1C[C@@](O)(C(F)(F)F)CC[C@@]21Cc1ccccc1 [Example 1, (4βS,7R,8αR)-4β-benzyl-7-hydroxy-N-(2-methylpyridin-3-yl)-7-(trifluoromethyl)-4β,5,6,7,8,8α,9,10-octahydrophenanthrene-2-carboxamide] | – | – | – | – | Corrected dissociation index OC/TNFα (ED50) (listed as Example 1 free base): 5.70; Corrected dissociation index OC/TNFα (ED80) (listed as Example 1 free base): >1.69; Corrected dissociation index BFR/disease severity (EAUC80) (data set 2): 15.5; Corrected Dissociation Index BFR/TNFα (EAUC50) (relative to prednisolone): 12.0; Corrected Dissociation Index BFR/disease incidence (EAUC50) (relative to prednisolone): 17.0; Corrected Dissociation Index BFR/disease incidence (EAUC80) (relative to prednisolone): 15.5; Corrected Dissociation Index BFR/disease severity (EAUC50) (relative to prednisolone): 15.0

Reference: patent US8901310B2, “Tricyclic compounds, compositions, and methods” (Pfizer Inc., priority 2007, dated 2014)
